Test results published in the supplement of paper PMC3682954.
Structures can show the parent of a compound that is named as a salt. ± gives the standard deviation of the averaged measurements. The list shows a part of the results. Repeats are few or missing, and single values can be far off.

Test system: RAW 264.7
Assay: cell viability (MTT) relative to vehicle control; higher = more viable cells
Details: stimulus: HMGB1 5 ug/ml, 18 h
[1] = compound concentration: 1 ug/ml

CC1(C)C[C@@H]1C(=O)N/C(=C\CCCCSC[C@H](N)C(=O)O)C(=O)O
cell viability (compound concentration: 3 uM): 89.7%

CC1(C)C[C@@H]1C(=O)N/C(=C\CCCCSC[C@H](N)C(=O)O)C(=O)O [Cilastatin]
cell viability (compound concentration: 3 uM): 93.8%

Cc1coc2c1C(=O)C(=O)c1c-2ccc2c1CCCC2(C)C
cell viability (compound concentration: 3 uM): 131%

Cc1coc2c1C(=O)C(=O)c1c-2ccc2c1CCCC2(C)C [Tanshinone IIA]
cell viability (compound concentration: 3 uM): 117%

CO/N=C(\C(=O)N[C@@H]1C(=O)N2C(C(=O)[O-])=C(C[N+]3(C)CCCC3)CS[C@H]12)c1csc(N)n1 [Cefepime]
cell viability (compound concentration: 3 uM): 96.7%

O=C1Cc2c([nH]c3ccc(Br)cc23)-c2ccccc2N1 [Kenpaullone]
cell viability (compound concentration: 3 uM): 114%

CC[C@H]1OC(=O)C[C@@H](O)[C@H](C)[C@@H](O[C@@H]2O[C@H](C)[C@@H](O)[C@H](N(C)C)[C@H]2O)[C@@H](CCN2C[C@H](C)C[C@H](C)C2)C[C@@H](C)C(=O)/C=C/C(C)=C/[C@@H]1CO[C@@H]1O[C@H](C)[C@@H](O)[C@@H](OC)[C@H]1OC
cell viability (compound concentration: 3 uM): 106%

CNCCCC12CCC(c3ccccc31)c1ccccc12 [Maprotilline HCl]
cell viability (compound concentration: 3 uM): 94.5%

CNCCCC12CCC(c3ccccc31)c1ccccc12
cell viability (compound concentration: 3 uM): 107%

CNCCCC12CCC(c3ccccc31)c1ccccc12 [Maprotiline hydrochloride]
cell viability (compound concentration: 3 uM): 105 ± 8.1%

CNCCCC12CCC(c3ccccc31)c1ccccc12 [Maprotiline]
cell viability (compound concentration: 3 uM): 98.2%

OC(c1cc(C(F)(F)F)nc2c(C(F)(F)F)cccc12)C1CCCCN1 (stereo unspecified)
cell viability (compound concentration: 3 uM): 94.2%

OC(c1cc(C(F)(F)F)nc2c(C(F)(F)F)cccc12)C1CCCCN1 (stereo unspecified) [Mefloquine hydrochloride]
cell viability (compound concentration: 3 uM): 99.4%

C[C@@H]1O[C@@H](OC[C@H]2O[C@@H](Oc3c(-c4ccc(OCCO)c(OCCO)c4)oc4cc(OCCO)cc(O)c4c3=O)[C@H](O)[C@@H](O)[C@@H]2O)[C@H](O)[C@H](O)[C@H]1O
cell viability (compound concentration: 3 uM): 107%

CCN(CC)C(=O)/C(C#N)=C/c1cc(O)c(O)c([N+](=O)[O-])c1 [Entacapone]
cell viability (compound concentration: 3 uM): 100 ± 16%

COc1cc(/C=C/C(=O)N2CCCCC2=O)cc(OC)c1OC
cell viability [1]: 85.4%

CC1(C)O[C@@H]2C[C@H]3[C@@H]4CCC5=CC(=O)CC[C@]5(C)[C@@]4(F)[C@@H](O)C[C@]3(C)[C@]2(C(=O)CCl)O1
cell viability (compound concentration: 3 uM): 118%

CC1(C)O[C@@H]2C[C@H]3[C@@H]4CCC5=CC(=O)CC[C@]5(C)[C@@]4(F)[C@@H](O)C[C@]3(C)[C@]2(C(=O)CCl)O1 [Halcinonide]
cell viability (compound concentration: 3 uM): 108%

C[C@]12C=CC(=O)C=C1CC[C@H]1[C@@H]3C[C@@H](O)[C@](O)(C(=O)CO)[C@@]3(C)C[C@H](O)[C@@]12F
cell viability (compound concentration: 3 uM): 111%

C[C@]12C=CC(=O)C=C1CC[C@H]1[C@@H]3C[C@@H](O)[C@](O)(C(=O)CO)[C@@]3(C)C[C@H](O)[C@@]12F [Triamcinolone]
cell viability (compound concentration: 3 uM): 104 ± 11%

CC(=O)O[C@H]1C[C@@H]2CC[C@@H]3[C@H](CC[C@@]4(C)[C@H]3C[C@H]([N+]3(C)CCCCC3)[C@@H]4OC(C)=O)[C@@]2(C)C[C@@H]1N1CCCCC1 [Vecuronium bromide]
cell viability (compound concentration: 3 uM): 100%

CC(=O)O[C@H]1C[C@@H]2CC[C@@H]3[C@H](CC[C@@]4(C)[C@H]3C[C@H]([N+]3(C)CCCCC3)[C@@H]4OC(C)=O)[C@@]2(C)C[C@@H]1N1CCCCC1
cell viability (compound concentration: 3 uM): 107 ± 8.5%

CC(=O)O[C@H]1C[C@@H]2CC[C@@H]3[C@H](CC[C@@]4(C)[C@H]3C[C@H]([N+]3(C)CCCCC3)[C@@H]4OC(C)=O)[C@@]2(C)C[C@@H]1N1CCCCC1 [Vecuronium]
cell viability (compound concentration: 3 uM): 107%

Cc1cc(C)cc(OCC2CNC(=O)O2)c1 (stereo unspecified)
cell viability (compound concentration: 3 uM): 111%

C[C@@H](O)[C@H]1C(=O)N2C(C(=O)O)=C(S[C@@H]3CN[C@H](C(=O)N(C)C)C3)[C@H](C)[C@H]12 [Meropenem]
cell viability (compound concentration: 3 uM): 97.8 ± 1.8%

C[C@@H](O)[C@H]1C(=O)N2C(C(=O)O)=C(S[C@@H]3CN[C@H](C(=O)N(C)C)C3)[C@H](C)[C@H]12
cell viability (compound concentration: 3 uM): 95.6%

CCCCCCCC/C=C\CCCCCCCC(=O)NCCO [N-Oleoylethanolamine]
cell viability (compound concentration: 3 uM): 110%

CC1(C)CC[C@]2(C(=O)O)CC[C@]3(C)C(=CC[C@@H]4[C@@]5(C)CC[C@H](O)C(C)(C)[C@@H]5CC[C@]43C)[C@@H]2C1 [Oleanolic acid; oleanol;  caryophyllin]
cell viability [1]: 96.4%

CC(C)NC[C@H](O)COc1cccc2ccccc12 [(S)-propranolol hydrochloride]
cell viability (compound concentration: 3 uM): 90.6%

CC(C)NC[C@H](O)COc1cccc2ccccc12 [(S)-Propranolol hydrochloride]
cell viability (compound concentration: 3 uM): 110%

CC(C)NC[C@H](O)COc1cccc2ccccc12 [Propranolol S(-)]
cell viability (compound concentration: 3 uM): 101%

O=c1c(-c2ccc(O)cc2)coc2cc(O)ccc12 [Daidzein]
cell viability (compound concentration: 3 uM): 97%

O=c1c(-c2ccc(O)cc2)coc2cc(O)ccc12
cell viability [1]: 96.2%

Clc1ccc(C(c2ccc(Cl)cc2)[n+]2ccn(CC(OCc3ccc(Cl)cc3Cl)c3ccc(Cl)cc3Cl)c2)cc1 (stereo unspecified) [Calmidazolium chloride]
cell viability (compound concentration: 3 uM): 108%

C[C@H]1O[C@@H](n2cc(F)c(=O)[nH]c2=O)[C@H](O)[C@@H]1O [Doxifluridine]
cell viability (compound concentration: 3 uM): 98.3%

C[C@H]1O[C@@H](n2cc(F)c(=O)[nH]c2=O)[C@H](O)[C@@H]1O [5-fluoro-5'-deoxyuridine]
cell viability (compound concentration: 3 uM): 108%

C[C@H]1O[C@@H](n2cc(F)c(=O)[nH]c2=O)[C@H](O)[C@@H]1O
cell viability (compound concentration: 3 uM): 114%

O=C(O)C=C1CCCc2ccccc2C1O (stereo unspecified)
cell viability (compound concentration: 3 uM): 113%

OCCN1CCN(CCCN2c3ccccc3C=Cc3ccccc32)CC1 [Opipramol dihydrochloride]
cell viability (compound concentration: 3 uM): 105 ± 9.5%

CN(C/C=C/c1ccccc1)Cc1cccc2ccccc12 [Naftifine hydrochloride]
cell viability (compound concentration: 3 uM): 98.6%

CC(=O)O[C@@H]1C[C@]2(C)[C@@H](C(C)=O)CC[C@H]2[C@@H]2CCC3=CC(=O)CC[C@]3(C)[C@H]21 [11-alpha-Acetoxyprogesterone]
cell viability [1]: 99.9%

CC(=O)CCCCn1c(=O)c2c(ncn2C)n(C)c1=O
cell viability (compound concentration: 3 uM): 107%

CC(=O)CCCCn1c(=O)c2c(ncn2C)n(C)c1=O [Pentoxifylline]
cell viability (compound concentration: 3 uM): 99.3 ± 4.7%

CN1C(=O)OC(C)(C)C1=O [Trimethadione]
cell viability (compound concentration: 3 uM): 90.3%

CN1C(=O)OC(C)(C)C1=O
cell viability (compound concentration: 3 uM): 103%

O=C(NCCN1CCOCC1)c1ccc(Cl)cc1 [Moclobemide]
cell viability (compound concentration: 3 uM): 101 ± 15%

O=C(NCCN1CCOCC1)c1ccc(Cl)cc1 [4-Chloro-N-(2-morpholin-4-yl-ethyl)-benzamide]
cell viability (compound concentration: 3 uM): 93.2%

Cc1c(C(=O)O)c(O)cc2c1C(=O)c1c(O)c([C@H]3O[C@H](CO)[C@@H](O)[C@H](O)[C@H]3O)c(O)c(O)c1C2=O
cell viability [1]: 95.8%

O=C(CCc1ccc(O)cc1)c1c(O)cc(O)cc1O[C@@H]1OC(CO)[C@@H](O)[C@@H](O)C1O (stereo partly specified) [Phloridzin]
cell viability (compound concentration: 3 uM): 96.4%

Cc1onc(-c2c(F)cccc2Cl)c1C(=O)N[C@@H]1C(=O)N2[C@@H]1SC(C)(C)[C@@H]2C(=O)O [Flucloxacillin sodium]
cell viability (compound concentration: 3 uM): 70.2%

CCCC(CCC)C(=O)O[C@H]1C[C@H]2CC[C@@H](C1)[N+]2(C)C [Anisotropine methyl bromide]
cell viability (compound concentration: 3 uM): 102%

NCCNCCNCCN
cell viability (compound concentration: 3 uM): 107%

CN(C)CCCSC(=N)N [Dimaprit dihydrochloride]
cell viability (compound concentration: 3 uM): 83.8%

Nc1ccc(C(=O)O)cc1
cell viability (compound concentration: 3 uM): 118%

CCN1CCCC(OC(=O)C(c2ccccc2)c2ccccc2)C1 (stereo unspecified)
cell viability (compound concentration: 3 uM): 105%

CCN1CCCC(OC(=O)C(c2ccccc2)c2ccccc2)C1 (stereo unspecified) [Piperidolate hydrochloride]
cell viability (compound concentration: 3 uM): 99.2%

NS(=O)(=O)c1cc(Cl)c(Cl)c(S(N)(=O)=O)c1 [Dichlorphenamide]
cell viability (compound concentration: 3 uM): 103%

CCCCCNC(=N)N/N=C/c1c[nH]c2ccc(OC)cc12
cell viability (compound concentration: 3 uM): 97.3%

O=C(Oc1ccccc1C(=O)O)c1ccccc1O
cell viability (compound concentration: 3 uM): 108%

O=C(O)c1ccc(S(=O)(=O)N(Cl)Cl)cc1
cell viability (compound concentration: 3 uM): 109%

COc1c(C)c2c(c(O)c1C/C=C(\C)CCC(=O)O)C(=O)OC2 [Mycophenolic Acid]
cell viability (compound concentration: 3 uM): 51.9%

COc1c(C)c2c(c(O)c1C/C=C(\C)CCC(=O)O)C(=O)OC2
cell viability (compound concentration: 3 uM): 47.9 ± 22%

COc1c(C)c2c(c(O)c1C/C=C(\C)CCC(=O)O)C(=O)OC2 [Mycophenolic acid]
cell viability [1]: 57.7%

OC[C@H]1O[C@@H](n2cnc3c(NCc4ccccc4)ncnc32)[C@H](O)[C@@H]1O [6-Benzylaminopurine riboside]
cell viability [1]: 93.5%

CCCCCCCCCC[Si](C)(C)CCC(=O)NC(Cc1ccc(C)cc1)c1ccccc1 (stereo unspecified) [Sandoz 58-035]
cell viability (compound concentration: 3 uM): 102%

N.N.O=C([O-])C[O-].[Pt+2] [Nedaplatin]
cell viability (compound concentration: 3 uM): 106%

COC(=O)N[C@H](C(=O)N[C@@H](Cc1ccccc1)[C@@H](O)CN(Cc1ccc(-c2ccccn2)cc1)NC(=O)[C@@H](NC(=O)OC)C(C)(C)C)C(C)(C)C [Atazanavir]
cell viability (compound concentration: 3 uM): 111%

Nc1ccc(S(=O)(=O)Nc2cnc3ccccc3n2)cc1 [Sulfaquinoxaline sodium salt]
cell viability (compound concentration: 3 uM): 133%

Nc1ccc(S(=O)(=O)Nc2cnc3ccccc3n2)cc1
cell viability (compound concentration: 3 uM): 114%

CNC[C@H](O)[C@@H](O)[C@H](O)[C@H](O)CO [Meglumine]
cell viability (compound concentration: 3 uM): 90.81 ± 0.66%

NCCCC(O)(P(=O)(O)O)P(=O)(O)O [Alendronate sodium]
cell viability (compound concentration: 3 uM): 116%

NCCCC(O)(P(=O)(O)O)P(=O)(O)O [Alendronate]
cell viability (compound concentration: 3 uM): 105%

NCCCC(O)(P(=O)(O)O)P(=O)(O)O
cell viability (compound concentration: 3 uM): 101.41 ± 0.035%

N=C(N)NCc1cccc(I)c1 [Iobenguane sulfate]
cell viability (compound concentration: 3 uM): 108%

CCCCS(=N)(=O)CCC(N)C(=O)O (racemic) [DL-Buthionine-[S,R]-sulfoximine]
cell viability (compound concentration: 3 uM): 92.5%

O=c1c(O)c(-c2ccccc2)oc2cccc(O)c12 [3,5-Dihydroxyflavone]
cell viability [1]: 103%
